Values from PubChem BioAssay AID720505 (Drosophila RNAi Screening Center, 2013)
Purpose: 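Fly regulators or components of the CRAC channel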 (primary screen). Cells: Drosophila S2R+ cells. Reagents: long dsRNA against Drosophila genes. Conditions: thapsigargin (2 µM) in calcium-free buffer to empty internal stores, then 2 mM calcium added back. Read-out: 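Stores emptied by 2 µM thapsigargin without calcium, then 2 mM calcium re-added; fluo-4 fluorescence followed by FLIPR in 384-well plates, per-well averaged endpoint, raw; two screen passes, some wells retested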. Reading the numbers: calcium signal: higher = more calcium entry after store depletion. Hit rule: 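About 1500 genes called as lowering calcium entry, by varying amounts, judged against per-plate control wells with STIM1 as positive and Rho1 as negative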. Calls: active = called as lowering calcium entry; inactive = not called.
The deposit covers about 20,000 reagents; shown is a random part of those that have a named target and a result. Of all reagents, about 2,100 (10%) got an active call. 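Raw plate signals without normalisation; calls rest on control-based scores that were not deposited; replicate 2 separates called from uncalled poorly.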 Entries without a mark were called inactive. Reagents against one gene are numbered here. Not stated in the record: the amount of reagent, the time to read-out.

{"Gene": "Csas", "reagent no.": 1, "calcium signal, replicate 1": 118, "calcium signal, replicate 2": 100}
{"Gene": "AhcyL2", "reagent no.": 1, "calcium signal, replicate 1": 118, "calcium signal, replicate 2": 160}
{"Gene": "Obp56b", "reagent no.": 1, "calcium signal, replicate 1": 180, "calcium signal, replicate 2": 145}
{"Gene": "ara", "reagent no.": 1, "calcium signal, replicate 1": 62.3, "calcium signal, replicate 2": 89.4}
{"Gene": "ara", "reagent no.": 2, "calcium signal, replicate 1": 114, "calcium signal, replicate 2": 117}
{"Gene": "CG1324", "reagent no.": 1, "calcium signal, replicate 1": 193, "calcium signal, replicate 2": 138}
{"Gene": "CG15395", "reagent no.": 1, "calcium signal, replicate 1": 171, "calcium signal, replicate 2": 178}
{"Gene": "Acyp2", "reagent no.": 1, "calcium signal, replicate 1": 114, "calcium signal, replicate 2": 160}
{"Gene": "Herp", "reagent no.": 1, "calcium signal, replicate 1": 137, "calcium signal, replicate 2": 222}
{"Gene": "JhI-26", "reagent no.": 1, "calcium signal, replicate 1": "74.6 (active)", "calcium signal, replicate 2": 168}
{"Gene": "CG2111", "reagent no.": 1, "calcium signal, replicate 1": 102, "calcium signal, replicate 2": 98.6}
{"Gene": "ema", "reagent no.": 1, "calcium signal, replicate 1": 58.6, "calcium signal, replicate 2": 129}

Entries above whose target name begins with A or a:
{"Gene": "AhcyL2", "reagent no.": 1, "calcium signal, replicate 1": 118, "calcium signal, replicate 2": 160}
{"Gene": "ara", "reagent no.": 1, "calcium signal, replicate 1": 62.3, "calcium signal, replicate 2": 89.4}
{"Gene": "ara", "reagent no.": 2, "calcium signal, replicate 1": 114, "calcium signal, replicate 2": 117}
{"Gene": "Acyp2", "reagent no.": 1, "calcium signal, replicate 1": 114, "calcium signal, replicate 2": 160}
